Results as given in the supplement of paper PMC12823440, “Inhibitors supercharge kinase turnover through native proteolytic circuits” (Nature, 2025).
Where a name gives a salt, the structure may show the parent alone. Some of the results follow. The calls rarely recur for the same compound in another form.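 In K562 cells expressing nanoluciferase-fused kinases, luminescence was recorded at 4 h intervals between 2 and 18 h, normalized as percent of control with DMSO at 100% and a positive control at 0%. A significant (2 sigma) signal drop marks a time point as decreased. The authors' rule for a hit is not shown and takes in more than the number of time points.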

Sequences of proteins named here, by UniProt entry; tags and fusion partners are left off. A change or cut given only in a name is not applied to a line headed by its entry.
UniProt Q06187: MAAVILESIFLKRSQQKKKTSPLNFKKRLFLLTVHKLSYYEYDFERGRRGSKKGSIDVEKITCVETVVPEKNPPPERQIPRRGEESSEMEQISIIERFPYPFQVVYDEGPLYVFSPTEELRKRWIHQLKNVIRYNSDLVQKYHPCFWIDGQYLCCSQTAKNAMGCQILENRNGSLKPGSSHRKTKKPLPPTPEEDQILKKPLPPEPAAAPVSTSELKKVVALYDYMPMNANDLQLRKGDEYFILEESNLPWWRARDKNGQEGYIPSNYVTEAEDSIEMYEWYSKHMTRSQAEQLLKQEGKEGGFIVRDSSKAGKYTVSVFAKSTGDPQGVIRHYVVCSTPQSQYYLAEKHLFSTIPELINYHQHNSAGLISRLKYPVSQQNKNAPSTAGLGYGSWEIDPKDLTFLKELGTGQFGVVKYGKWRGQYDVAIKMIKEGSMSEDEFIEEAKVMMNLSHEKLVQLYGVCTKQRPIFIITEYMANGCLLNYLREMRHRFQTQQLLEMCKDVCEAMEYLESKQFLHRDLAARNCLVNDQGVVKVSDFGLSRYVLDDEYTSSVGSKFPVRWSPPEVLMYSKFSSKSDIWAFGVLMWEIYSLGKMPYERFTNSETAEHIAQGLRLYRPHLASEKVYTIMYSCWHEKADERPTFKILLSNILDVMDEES
UniProt Q9UQM7, whole entry: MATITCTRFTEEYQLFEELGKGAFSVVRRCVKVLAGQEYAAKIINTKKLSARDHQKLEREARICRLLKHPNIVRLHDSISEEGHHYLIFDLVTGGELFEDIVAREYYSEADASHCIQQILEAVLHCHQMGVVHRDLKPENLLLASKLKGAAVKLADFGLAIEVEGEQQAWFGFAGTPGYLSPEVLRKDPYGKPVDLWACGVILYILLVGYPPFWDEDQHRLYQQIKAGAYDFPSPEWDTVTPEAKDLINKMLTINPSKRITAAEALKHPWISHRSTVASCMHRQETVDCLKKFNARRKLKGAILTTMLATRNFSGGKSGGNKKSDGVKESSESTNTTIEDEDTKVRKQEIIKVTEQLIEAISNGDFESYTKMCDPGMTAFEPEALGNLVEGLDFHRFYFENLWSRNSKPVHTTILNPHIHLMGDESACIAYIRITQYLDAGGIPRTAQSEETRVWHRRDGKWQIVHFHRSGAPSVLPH
UniProt Q13555: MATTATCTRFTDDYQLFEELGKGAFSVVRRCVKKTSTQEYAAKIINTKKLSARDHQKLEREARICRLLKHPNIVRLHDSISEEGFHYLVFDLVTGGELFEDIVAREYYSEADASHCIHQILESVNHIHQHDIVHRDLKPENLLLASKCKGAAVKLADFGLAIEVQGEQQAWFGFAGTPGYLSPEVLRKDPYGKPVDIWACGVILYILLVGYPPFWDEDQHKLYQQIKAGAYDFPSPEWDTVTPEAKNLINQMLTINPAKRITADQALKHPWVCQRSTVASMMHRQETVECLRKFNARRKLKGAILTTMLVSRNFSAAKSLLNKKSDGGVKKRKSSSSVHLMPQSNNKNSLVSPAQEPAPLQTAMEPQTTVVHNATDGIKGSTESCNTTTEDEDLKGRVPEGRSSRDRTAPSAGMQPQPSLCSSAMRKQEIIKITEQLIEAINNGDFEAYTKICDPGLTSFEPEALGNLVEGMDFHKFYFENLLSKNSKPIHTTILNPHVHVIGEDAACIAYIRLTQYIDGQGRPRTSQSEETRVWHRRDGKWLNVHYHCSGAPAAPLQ
UniProt Q15131: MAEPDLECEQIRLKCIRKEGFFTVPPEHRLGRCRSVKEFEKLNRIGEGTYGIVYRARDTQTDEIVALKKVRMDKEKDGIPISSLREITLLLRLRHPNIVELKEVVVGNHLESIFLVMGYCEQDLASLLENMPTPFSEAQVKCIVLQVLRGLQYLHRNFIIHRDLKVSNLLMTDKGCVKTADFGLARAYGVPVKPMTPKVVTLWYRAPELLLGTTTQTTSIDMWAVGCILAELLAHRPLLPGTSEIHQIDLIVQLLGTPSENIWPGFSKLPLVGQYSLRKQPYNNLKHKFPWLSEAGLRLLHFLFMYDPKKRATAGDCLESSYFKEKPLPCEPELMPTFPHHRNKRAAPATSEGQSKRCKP
UniProt Q00526: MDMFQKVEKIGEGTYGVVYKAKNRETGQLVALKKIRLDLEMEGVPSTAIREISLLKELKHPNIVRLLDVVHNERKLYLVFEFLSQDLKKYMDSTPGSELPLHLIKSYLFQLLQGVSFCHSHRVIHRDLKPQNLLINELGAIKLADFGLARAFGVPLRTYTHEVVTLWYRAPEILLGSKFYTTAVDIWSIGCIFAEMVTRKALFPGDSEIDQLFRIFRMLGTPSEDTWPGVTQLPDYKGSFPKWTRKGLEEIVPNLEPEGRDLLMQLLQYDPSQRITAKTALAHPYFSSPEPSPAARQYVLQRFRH
UniProt P11802: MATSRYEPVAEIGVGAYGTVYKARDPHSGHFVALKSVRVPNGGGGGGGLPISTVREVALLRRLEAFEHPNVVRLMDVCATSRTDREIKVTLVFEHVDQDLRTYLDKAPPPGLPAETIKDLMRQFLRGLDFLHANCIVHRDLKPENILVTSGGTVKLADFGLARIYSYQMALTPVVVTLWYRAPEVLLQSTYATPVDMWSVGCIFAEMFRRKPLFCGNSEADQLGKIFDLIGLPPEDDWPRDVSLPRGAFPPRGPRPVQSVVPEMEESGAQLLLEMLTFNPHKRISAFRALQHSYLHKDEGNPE
UniProt Q00535, whole entry, looked up: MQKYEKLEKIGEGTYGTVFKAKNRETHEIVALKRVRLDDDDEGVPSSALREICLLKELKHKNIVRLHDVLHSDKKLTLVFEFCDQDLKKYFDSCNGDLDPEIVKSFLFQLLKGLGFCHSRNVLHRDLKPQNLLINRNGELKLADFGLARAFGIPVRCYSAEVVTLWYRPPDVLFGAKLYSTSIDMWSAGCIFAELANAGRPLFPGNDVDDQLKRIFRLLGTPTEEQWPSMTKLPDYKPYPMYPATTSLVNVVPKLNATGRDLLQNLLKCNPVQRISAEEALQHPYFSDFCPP
UniProt Q00534, whole entry: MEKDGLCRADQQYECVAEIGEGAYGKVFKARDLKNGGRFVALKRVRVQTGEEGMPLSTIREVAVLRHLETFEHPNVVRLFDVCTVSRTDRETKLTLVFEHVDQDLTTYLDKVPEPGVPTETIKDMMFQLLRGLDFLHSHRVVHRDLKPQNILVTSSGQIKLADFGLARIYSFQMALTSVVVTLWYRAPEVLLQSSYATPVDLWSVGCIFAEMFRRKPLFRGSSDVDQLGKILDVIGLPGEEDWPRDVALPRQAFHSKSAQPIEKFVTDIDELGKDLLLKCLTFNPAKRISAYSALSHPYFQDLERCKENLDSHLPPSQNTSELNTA
UniProt P50613: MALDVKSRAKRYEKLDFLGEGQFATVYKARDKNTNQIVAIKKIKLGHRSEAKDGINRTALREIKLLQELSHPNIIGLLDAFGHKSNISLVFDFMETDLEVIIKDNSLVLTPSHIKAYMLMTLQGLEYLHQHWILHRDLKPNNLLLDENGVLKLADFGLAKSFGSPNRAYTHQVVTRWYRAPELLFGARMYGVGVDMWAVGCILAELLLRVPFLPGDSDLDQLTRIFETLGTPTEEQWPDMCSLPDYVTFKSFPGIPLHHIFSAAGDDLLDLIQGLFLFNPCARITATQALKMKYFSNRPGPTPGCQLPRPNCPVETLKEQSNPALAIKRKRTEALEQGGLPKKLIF
UniProt P50750, whole entry: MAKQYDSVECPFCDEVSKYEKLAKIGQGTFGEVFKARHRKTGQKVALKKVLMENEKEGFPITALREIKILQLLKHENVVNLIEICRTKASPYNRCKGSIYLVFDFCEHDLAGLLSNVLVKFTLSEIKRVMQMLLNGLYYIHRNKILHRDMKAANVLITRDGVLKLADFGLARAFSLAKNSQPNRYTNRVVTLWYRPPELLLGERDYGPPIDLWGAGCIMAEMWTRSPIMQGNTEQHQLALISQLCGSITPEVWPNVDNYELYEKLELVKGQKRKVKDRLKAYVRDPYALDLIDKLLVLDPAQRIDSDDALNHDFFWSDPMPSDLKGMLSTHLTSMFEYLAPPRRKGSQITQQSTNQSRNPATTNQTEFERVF
UniProt O96017, whole entry: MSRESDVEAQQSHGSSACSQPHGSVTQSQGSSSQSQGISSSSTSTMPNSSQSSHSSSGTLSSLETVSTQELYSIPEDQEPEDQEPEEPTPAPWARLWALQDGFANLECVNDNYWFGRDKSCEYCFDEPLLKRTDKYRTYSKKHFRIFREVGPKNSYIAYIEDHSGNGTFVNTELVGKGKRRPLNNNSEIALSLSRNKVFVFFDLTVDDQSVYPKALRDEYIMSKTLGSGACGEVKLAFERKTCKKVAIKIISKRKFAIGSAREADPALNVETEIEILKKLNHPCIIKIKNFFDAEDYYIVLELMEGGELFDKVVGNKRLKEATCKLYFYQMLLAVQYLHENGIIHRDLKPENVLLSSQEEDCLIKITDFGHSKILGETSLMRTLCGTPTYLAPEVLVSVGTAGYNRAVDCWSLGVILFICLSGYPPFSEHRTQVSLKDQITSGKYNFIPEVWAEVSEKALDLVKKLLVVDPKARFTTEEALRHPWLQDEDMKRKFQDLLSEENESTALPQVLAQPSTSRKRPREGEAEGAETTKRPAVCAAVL
UniProt P41240: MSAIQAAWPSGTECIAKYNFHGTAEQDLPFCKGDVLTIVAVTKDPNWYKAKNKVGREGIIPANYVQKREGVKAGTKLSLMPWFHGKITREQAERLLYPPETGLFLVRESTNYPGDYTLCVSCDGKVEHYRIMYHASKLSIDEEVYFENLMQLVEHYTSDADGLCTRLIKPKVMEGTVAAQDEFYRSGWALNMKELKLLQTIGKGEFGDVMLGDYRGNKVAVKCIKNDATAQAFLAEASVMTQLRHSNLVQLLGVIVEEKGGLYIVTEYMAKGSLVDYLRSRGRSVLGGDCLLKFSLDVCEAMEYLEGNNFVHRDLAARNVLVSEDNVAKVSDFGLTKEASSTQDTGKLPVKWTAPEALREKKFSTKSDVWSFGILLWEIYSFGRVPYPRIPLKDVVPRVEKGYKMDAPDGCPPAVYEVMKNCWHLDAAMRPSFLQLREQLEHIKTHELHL
UniProt P48729: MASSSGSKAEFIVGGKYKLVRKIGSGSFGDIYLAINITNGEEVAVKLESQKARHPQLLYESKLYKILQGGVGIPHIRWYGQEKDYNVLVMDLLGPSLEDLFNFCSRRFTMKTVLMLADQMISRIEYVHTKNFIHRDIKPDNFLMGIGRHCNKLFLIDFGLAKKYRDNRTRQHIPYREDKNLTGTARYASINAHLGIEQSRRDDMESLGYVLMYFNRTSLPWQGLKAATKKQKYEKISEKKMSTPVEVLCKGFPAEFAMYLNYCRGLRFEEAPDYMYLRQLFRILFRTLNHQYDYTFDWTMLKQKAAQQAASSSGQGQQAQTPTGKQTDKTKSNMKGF
UniProt P48730: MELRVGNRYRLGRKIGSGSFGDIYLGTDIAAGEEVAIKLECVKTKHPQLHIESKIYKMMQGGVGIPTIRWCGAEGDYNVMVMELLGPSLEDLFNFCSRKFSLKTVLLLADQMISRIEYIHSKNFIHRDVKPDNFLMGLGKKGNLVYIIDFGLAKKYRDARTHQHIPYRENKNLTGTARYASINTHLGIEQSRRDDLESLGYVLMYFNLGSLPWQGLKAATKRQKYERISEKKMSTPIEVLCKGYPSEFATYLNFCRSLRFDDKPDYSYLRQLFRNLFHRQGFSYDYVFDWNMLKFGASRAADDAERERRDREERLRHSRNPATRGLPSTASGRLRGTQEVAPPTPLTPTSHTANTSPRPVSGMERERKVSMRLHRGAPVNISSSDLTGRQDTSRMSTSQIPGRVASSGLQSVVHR
UniProt Q9Y463, whole entry, looked up: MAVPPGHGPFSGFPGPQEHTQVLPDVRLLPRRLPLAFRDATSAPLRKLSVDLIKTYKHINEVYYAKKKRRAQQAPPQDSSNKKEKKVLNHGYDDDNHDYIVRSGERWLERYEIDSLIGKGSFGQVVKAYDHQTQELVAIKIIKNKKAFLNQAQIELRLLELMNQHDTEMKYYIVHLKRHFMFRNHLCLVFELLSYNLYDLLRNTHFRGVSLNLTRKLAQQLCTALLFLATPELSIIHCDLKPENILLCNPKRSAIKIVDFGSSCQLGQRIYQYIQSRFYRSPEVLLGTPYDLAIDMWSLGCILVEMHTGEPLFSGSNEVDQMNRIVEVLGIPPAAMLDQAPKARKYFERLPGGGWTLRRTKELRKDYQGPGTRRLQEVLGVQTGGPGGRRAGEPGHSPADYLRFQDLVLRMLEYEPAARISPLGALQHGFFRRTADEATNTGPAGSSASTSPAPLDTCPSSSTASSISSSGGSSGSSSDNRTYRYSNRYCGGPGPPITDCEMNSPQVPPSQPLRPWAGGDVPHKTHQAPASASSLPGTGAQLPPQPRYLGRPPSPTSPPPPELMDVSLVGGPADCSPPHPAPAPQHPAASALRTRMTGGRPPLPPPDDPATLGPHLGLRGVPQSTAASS

Assays:
Assay in all cases: kinase-Nluc reporter destabilization hit call (1 = scored as downregulated) (binary); higher = compound decreases kinase abundance
Conditions in all cases: K562, 2-18 h
[1] = test system: BRAF_V600E
[2] = target: BTK (UniProt Q06187)
[3] = target: CAMK2A (UniProt Q9UQM7)
[4] = target: CAMK2G (UniProt Q13555)
[5] = target: CDK10 (UniProt Q15131)
[6] = target: CDK2 (UniProt P24941)
[7] = target: CDK3 (UniProt Q00526)
[8] = target: CDK4 (UniProt P11802)
[9] = target: CDK5 (UniProt Q00535)
[10] = target: CDK6 (UniProt Q00534)
[11] = target: CDK7 (UniProt P50613)
[12] = target: CDK9 (UniProt P50750)
[13] = target: CHEK2 (UniProt O96017)
[14] = target: CSF1R (UniProt P07333)
[15] = target: CSK (UniProt P41240)
[16] = target: CSNK1A1 (UniProt P48729)
[17] = target: CSNK1D (UniProt P48730)
[18] = target: DDR1 (UniProt Q08345)
[19] = target: DYRK1B (UniProt Q9Y463)
[20] = target: DYRK2 (UniProt Q92630)

Measured: kinase-Nluc reporter destabilization hit call

C=CC(=O)Nc1cc2c(Nc3ccc(F)c(Cl)c3)ncnc2cc1C#CC(C)(C)N1CCN(C)CC1 [AV-412 (free base)]
active: [1]; 2.5 µM 1 | [18]; 2.5 µM 1
inactive: [2]; 2.5 µM 0 | [3]; 2.5 µM 0 | [4]; 2.5 µM 0 | [5]; 2.5 µM 0 | [6]; 2.5 µM 0 | [7]; 2.5 µM 0 | [8]; 2.5 µM 0 | [9]; 2.5 µM 0 | [10]; 2.5 µM 0 | [11]; 2.5 µM 0 | [12]; 2.5 µM 0 | [13]; 2.5 µM 0 | [14]; 2.5 µM 0 | [15]; 2.5 µM 0 | [16]; 2.5 µM 0 | [17]; 2.5 µM 0 | [19]; 2.5 µM 0 | [20]; 2.5 µM 0

O=C(O)c1ccc2c(c1)nc(Nc1cccc(Cl)c1)c1ccncc12 [Silmitasertib (sodium salt)]
inactive: [1]; 10 µM 0 | [2]; 10 µM 0 | [3]; 10 µM 0 | [4]; 10 µM 0 | [5]; 10 µM 0 | [6]; 10 µM 0 | [7]; 10 µM 0 | [8]; 10 µM 0 | [9]; 10 µM 0 | [10]; 10 µM 0 | [11]; 10 µM 0 | [12]; 10 µM 0 | [13]; 10 µM 0 | [14]; 10 µM 0 | [15]; 10 µM 0 | [16]; 10 µM 0 | [17]; 10 µM 0 | [18]; 10 µM 0 | [19]; 10 µM 0 | [20]; 10 µM 0

C/C=C1\C(=O)C[C@H]2[C@@H]3CCC4=CC(=O)CC[C@]4(C)[C@H]3CC[C@]12C [Guggulsterone]
inactive: [1]; 10 µM 0 | [2]; 10 µM 0 | [3]; 10 µM 0 | [4]; 10 µM 0 | [5]; 10 µM 0 | [6]; 10 µM 0 | [7]; 10 µM 0 | [8]; 10 µM 0 | [9]; 10 µM 0 | [10]; 10 µM 0 | [11]; 10 µM 0 | [12]; 10 µM 0 | [13]; 10 µM 0 | [14]; 10 µM 0 | [15]; 10 µM 0 | [16]; 10 µM 0 | [17]; 10 µM 0 | [18]; 10 µM 0 | [19]; 10 µM 0 | [20]; 10 µM 0

Oc1cccc(-c2nc(N3CCOCC3)c3oc4ncccc4c3n2)c1
inactive: [1]; 10 µM 0 | [2]; 10 µM 0 | [3]; 10 µM 0 | [4]; 10 µM 0 | [5]; 10 µM 0 | [6]; 10 µM 0 | [7]; 10 µM 0 | [8]; 10 µM 0 | [9]; 10 µM 0 | [10]; 10 µM 0 | [11]; 10 µM 0 | [12]; 10 µM 0 | [13]; 10 µM 0 | [14]; 10 µM 0 | [15]; 10 µM 0 | [16]; 10 µM 0 | [17]; 10 µM 0 | [18]; 10 µM 0 | [19]; 10 µM 0 | [20]; 10 µM 0

3 structures out of the list, sorted by length of the SMILES, smallest number first.
Oc1cccc(-c2nc(N3CCOCC3)c3oc4ncccc4c3n2)c1
inactive: [1]; 10 µM 0 | [2]; 10 µM 0 | [3]; 10 µM 0 | [4]; 10 µM 0 | [5]; 10 µM 0 | [6]; 10 µM 0 | [7]; 10 µM 0 | [8]; 10 µM 0 | [9]; 10 µM 0 | [10]; 10 µM 0 | [11]; 10 µM 0 | [12]; 10 µM 0 | [13]; 10 µM 0 | [14]; 10 µM 0 | [15]; 10 µM 0 | [16]; 10 µM 0 | [17]; 10 µM 0 | [18]; 10 µM 0 | [19]; 10 µM 0 | [20]; 10 µM 0

O=C(O)c1ccc2c(c1)nc(Nc1cccc(Cl)c1)c1ccncc12 [Silmitasertib (sodium salt)]
inactive: [1]; 10 µM 0 | [2]; 10 µM 0 | [3]; 10 µM 0 | [4]; 10 µM 0 | [5]; 10 µM 0 | [6]; 10 µM 0 | [7]; 10 µM 0 | [8]; 10 µM 0 | [9]; 10 µM 0 | [10]; 10 µM 0 | [11]; 10 µM 0 | [12]; 10 µM 0 | [13]; 10 µM 0 | [14]; 10 µM 0 | [15]; 10 µM 0 | [16]; 10 µM 0 | [17]; 10 µM 0 | [18]; 10 µM 0 | [19]; 10 µM 0 | [20]; 10 µM 0

C/C=C1\C(=O)C[C@H]2[C@@H]3CCC4=CC(=O)CC[C@]4(C)[C@H]3CC[C@]12C [Guggulsterone]
inactive: [1]; 10 µM 0 | [2]; 10 µM 0 | [3]; 10 µM 0 | [4]; 10 µM 0 | [5]; 10 µM 0 | [6]; 10 µM 0 | [7]; 10 µM 0 | [8]; 10 µM 0 | [9]; 10 µM 0 | [10]; 10 µM 0 | [11]; 10 µM 0 | [12]; 10 µM 0 | [13]; 10 µM 0 | [14]; 10 µM 0 | [15]; 10 µM 0 | [16]; 10 µM 0 | [17]; 10 µM 0 | [18]; 10 µM 0 | [19]; 10 µM 0 | [20]; 10 µM 0

Next part

Cc1cccc(/C=N/Nc2cc(N3CCOCC3)nc(OCCc3ccccn3)n2)c1 [Apilimod (mesylate)]
inactive: [1]; 10 µM 0 | [2]; 10 µM 0 | [3]; 10 µM 0 | [4]; 10 µM 0 | [5]; 10 µM 0 | [6]; 10 µM 0 | [7]; 10 µM 0 | [8]; 10 µM 0 | [9]; 10 µM 0 | [10]; 10 µM 0 | [11]; 10 µM 0 | [12]; 10 µM 0 | [13]; 10 µM 0 | [14]; 10 µM 0 | [15]; 10 µM 0 | [16]; 10 µM 0 | [17]; 10 µM 0 | [18]; 10 µM 0 | [19]; 10 µM 0 | [20]; 10 µM 0

N#CCC1(n2cc(-c3ncnc4[nH]ccc34)cn2)CN(C2CCN(C(=O)c3ccnc(C(F)(F)F)c3F)CC2)C1 [Itacitinib]
inactive: [1]; 10 µM 0 | [2]; 10 µM 0 | [3]; 10 µM 0 | [4]; 10 µM 0 | [5]; 10 µM 0 | [6]; 10 µM 0 | [7]; 10 µM 0 | [8]; 10 µM 0 | [9]; 10 µM 0 | [10]; 10 µM 0 | [11]; 10 µM 0 | [12]; 10 µM 0 | [13]; 10 µM 0 | [14]; 10 µM 0 | [15]; 10 µM 0 | [16]; 10 µM 0 | [17]; 10 µM 0 | [18]; 10 µM 0 | [19]; 10 µM 0 | [20]; 10 µM 0

COc1cc2nccc(Nc3cc(OC)c(OC)c(OC)c3)c2cc1OC [GAK inhibitor 49 (hydrochloride)]
inactive: [1]; 10 µM 0 | [2]; 10 µM 0 | [3]; 10 µM 0 | [4]; 10 µM 0 | [5]; 10 µM 0 | [6]; 10 µM 0 | [7]; 10 µM 0 | [8]; 10 µM 0 | [9]; 10 µM 0 | [10]; 10 µM 0 | [11]; 10 µM 0 | [12]; 10 µM 0 | [13]; 10 µM 0 | [14]; 10 µM 0 | [15]; 10 µM 0 | [16]; 10 µM 0 | [17]; 10 µM 0 | [18]; 10 µM 0 | [19]; 10 µM 0 | [20]; 10 µM 0

CCN(CC)Cc1ccc(OC)c(-c2cc3c(-c4ccc(C(=O)O)c(C(C)C)c4)ccnc3[nH]2)c1
inactive: [1]; 2.5 µM 0 | [1]; 10 µM 0 | [2]; 2.5 µM 0 | [2]; 10 µM 0 | [3]; 2.5 µM 0 | [3]; 10 µM 0 | [4]; 2.5 µM 0 | [4]; 10 µM 0 | [5]; 2.5 µM 0 | [5]; 10 µM 0 | [6]; 2.5 µM 0 | [6]; 10 µM 0 | [7]; 2.5 µM 0 | [7]; 10 µM 0 | [8]; 2.5 µM 0 | [8]; 10 µM 0 | [9]; 2.5 µM 0 | [9]; 10 µM 0 | [10]; 2.5 µM 0 | [10]; 10 µM 0 | [11]; 2.5 µM 0 | [11]; 10 µM 0 | [12]; 2.5 µM 0 | [12]; 10 µM 0 | [13]; 2.5 µM 0 | [13]; 10 µM 0 | [14]; 2.5 µM 0 | [14]; 10 µM 0 | [15]; 2.5 µM 0 | [15]; 10 µM 0 | [16]; 2.5 µM 0 | [16]; 10 µM 0 | [17]; 2.5 µM 0 | [17]; 10 µM 0 | [18]; 2.5 µM 0 | [18]; 10 µM 0 | [19]; 2.5 µM 0 | [19]; 10 µM 0 | [20]; 2.5 µM 0 | [20]; 10 µM 0
